Some of these results come from one statement about several compounds together. For at least one compound, name, drawing or mass did not settle the structure.
Test system: Wheat Leaf Blotch (Septoria tritici)
Experiment: Test Example 2: preventing infection by wheat leaf blotch, foliage application
Type: in vivo
Details: 500 ppm, inoculation two days later, wheat (Apogee), 3 days high humidity then 14 to 18 days illumination

Row | SMILES | affected areas of treated plants relative to affected areas of untreated plants [%]
1 | Cc1ccc(C(=O)NCc2ccc(Oc3ccccc3)cc2)c(N)n1 [compound 29] | ≤ 30
2 | Cc1ccc(C(=O)NCc2cccc(Oc3ccccc3)c2)c(N)n1 [compound 92] | ≤ 30
3 | COCc1ccc(C(=O)NCc2ccc(Oc3ccccc3)s2)c(N)n1 [compound 260, N-(5-phenoxythiophen-2-yl)-methyl-2-amino-6-methoxymethylnicotinic acid amide] | ≤ 30
4 | Cc1cccc(Oc2cccc(CNC(=O)c3cccnc3N)c2)c1 [compound 20] | ≤ 30
5 | C#CCCCOc1cccc(CNC(=O)c2ccc(COC)nc2N)c1F [compound 344, N-{3-[2-fluoro-3-(4-pentynyloxy)phenyl]}methyl-2-amino-6-methoxymethylnicotinic acid amide] | ≤ 30
6 | COCc1ccc(C(=O)NCc2ccc(Oc3ccccc3)cc2)c(N)n1 [compound 62] | ≤ 30

Source: patent US20110009454A1, “COMPOSITION FOR AGRICULTURAL USE FOR CONTROLLING OR PREVENTING PLANT DISEASES CAUSED BY PLANT PATHOGENS” (SUMITOMO CHEMICAL COMPANY, LIMITED, priority 2008, published 2011)
